Results are given in words; binding and its absence hold for the method and conditions named. In cells and extracts the contact can be indirect.

This experiment addresses MHC-1 (endogenous) (human (endogenous in DU145 and PC-3)). Kind of experiment: co-IP; endogenous proteins in lysates of DU145 and/or PC-3 cells; IP lysis buffer with protease inhibitors, IgG or specific primary antibody plus protein A/G magnetic beads overnight at 4 °C, three washes, western blot. (A western blot detects proteins with antibodies after separation by electrophoresis.)

B1: USP8 (endogenous) (enzyme, UniProt P40818 1-1118)
chain: MPAVASVPKELYLSSSLKDLNKKTEVKPEKISTKSYVHSALKIFKTAEECRLDRDEERAYVLYMKYVTVYNLIKKRPDFKQQQDYFHSILGPGNIKKAVEEAERLSESLKLRYEEAEVRKKLEEKDRQEEAQRLQQKRQETGREDGGTLAKGSLENVLDSKDKTQKSNGEKNEKCETKEKGAITAKELYTMMTDKNISLIIMDARRMQDYQDSCILHSLSVPEEAISPGVTASWIEAHLPDDSKDTWKKRGNVEYVVLLDWFSSAKDLQIGTTLRSLKDALFKWESKTVLRNEPLVLEGGYENWLLCYPQYTTNAKVTPPPRRQNEEVSISLDFTYPSLEESIPSKPAAQTPPASIEVDENIELISGQNERMGPLNISTPVEPVAASKSDVSPIIQPVPSIKNVPQIDRTKKPAVKLPEEHRIKSESTNHEQQSPQSGKVIPDRSTKPVVFSPTLMLTDEEKARIHAETALLMEKNKQEKELRERQQEEQKEKLRKEEQEQKAKKKQEAEENEITEKQQKAKEEMEKKESEQAKKEDKETSAKRGKEITGVKRQSKSEHETSDAKKSVEDRGKRCPTPEIQKKSTGDVPHTSVTGDSGSGKPFKIKGQPESGILRTGTFREDTDDTERNKAQREPLTRARSEEMGRIVPGLPSGWAKFLDPITGTFRYYHSPTNTVHMYPPEMAPSSAPPSTPPTHKAKPQIPAERDREPSKLKRSYSSPDITQAIQEEEKRKPTVTPTVNRENKPTCYPKAEISRLSASQIRNLNPVFGGSGPALTGLRNLGNTCYMNSILQCLCNAPHLADYFNRNCYQDDINRSNLLGHKGEVAEEFGIIMKALWTGQYRYISPKDFKITIGKINDQFAGYSQQDSQELLLFLMDGLHEDLNKADNRKRYKEENNDHLDDFKAAEHAWQKHKQLNESIIVALFQGQFKSTVQCLTCHKKSRTFEAFMYLSLPLASTSKCTLQDCLRLFSKEEKLTDNNRFYCSHCRARRDSLKKIEIWKLPPVLLVHLKRFSYDGRWKQKLQTSVDFPLENLDLSQYVIGPKNNLKKYNLFSVSNHYGGLDGGHYTAYCKNAARQRWFKFDDHEVSDISVSSVKSSAAYILFYTSLGPRVTDVAT
As to B1, the binding entry was “no binding”.

(Values after article PMC12102395.)
